Results on seven compounds are retold here after patent publication US20220389230A1, “BLAST FURNACE SLAG-TYPE PAINT” (FUKKO CO., LTD., priority 2019, published 2022).

A short description of series [1]: Corrosiveness of alkaline substances to aluminum, change in appearance after 24 hours. More on the design: key: No change; ?: Slight discoloration; x: Discoloration; xx: Dissolution.
Test in series [2]: as above
Also on record: key: No change; ?: Slight discoloration; x: Discoloration; xx: Dissolution. How it is done: For comparison with the aqueous solution shown in Table 3, a slurry liquid obtained by adding 10 parts by weight of water to 20 parts by weight of ordinary Portland cement was allowed to contact with an aluminum plate (A1050) not subjected to the surface treatment and an aluminum sash frame coated with a sulfuric acid anodized film at the spot, and a change in the appearance after 24 hours was observed.
The source holds these as a separate data set.

Setting [3] is: spot contact, appearance after 24 hours.

Read-outs that look alike come from different tables or passages of the source.

With `[Ca+2].[OH-].[OH-]` [Calcium hydroxide], in series [1], the “Corrosiveness: Aluminum sash frame (with anodized film)” value (“Corrosiveness: Aluminum sash frame” below) is “x”. The “Corrosiveness: Aluminum plate (A1050) (no surface treatment)” value (from here on “Corrosiveness … (no surface treatment)”) in series [2] was “x”.

For the compound `O=C([O-])[O-].[K+].[K+]` [Potassium carbonate], the “Corrosiveness … (no surface treatment)” value in series [2] was “x”.

With `[K+].[OH-]` [Potassium hydroxide], the “Corrosiveness: Aluminum sash frame” value in series [1] was “xx”. Moreover, the “Corrosiveness … (no surface treatment)” value in series [2] was “xx”.

For `O=C([O-])CC(O)(CC(=O)[O-])C(=O)[O-].[Na+].[Na+].[Na+]` [Sodium citrate], the “Corrosiveness: Aluminum sash frame” value in series [1] (setting [3]) is reported as “o”. The “Corrosiveness … (no surface treatment)” value in series [2] (setting [3]) was “o”.

Turning to `[Na+].[OH-]` [Sodium hydroxide], the “Corrosiveness: Aluminum sash frame” value in series [1] (setting [3]) is recorded as “xx”. For the same compound, in series [2] (setting [3]), the “Corrosiveness … (no surface treatment)” value is on record as “xx”.

As to `N` [ammonia], the “Corrosiveness: Aluminum sash frame” value in series [1] (setting [3]) is on record as “o”. Further, the “Corrosiveness … (no surface treatment)” value in series [2] (setting [3]) is given as “x”.

Turning to `O=C([O-])[O-].[Na+].[Na+]` [sodium carbonate], the “Corrosiveness: Aluminum sash frame” value in series [1] was “o”.
